This experiment can be described thus: qHTS Assay for Lipid Storage Modulators in Drosophila S3 Cells.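 On cell number change: cells counted by Cell Tracker Red CMTPX staining in the red channel.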 The following applies: BODIPY lipid droplet fluorescence, 18-24 h; for cell number change: measured here: cell count max response, cells fed with added oleic acid. Put shortly: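 Laser-scanning cytometry quantifies lipid droplet accumulation (500–530 nm total intensity; droplet/cell object ratio) in oleic acid-fed (400 uM added) Drosophila S3 cells treated with a concentration series. 20 uM Triacsin C defined 100% inhibition.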
(In qHTS, concentration-response curves come from the screen itself.)

Where [1] appears, read: measured here: lipid fluorescence (Fed channel) AC50, cells fed with added oleic acid.
Setting [2] is: measured here: cell number channel AC50, cells fed with added oleic acid.

Some of the results follow. Further columns of the screen follow, without active or inactive calls. Most of these compounds were active or inconclusive in the main read-out, so they are no random draw. The note in brackets gives the kind of curve behind each potency; many fits are weak.

The AC50 is the midpoint of the concentration-response curve, whichever way the signal moves. Read a high AC50 as activity only at high concentration. In the case of `CC(OC(=O)c1nc(Cl)ccc1Cl)C(=O)c1ccccc1` (configuration not stated), the cell number change was -1.27%. The AC50 under setting [1] is 6.51 µM [falling, single point].
Take `O=S(=O)(Nc1ccc(-c2csc(-c3ccccc3)n2)cc1)c1ccc(F)cc1`: the cell number change is -56.8%. The AC50 under setting [2] is 29.1 µM [falling, single point]. In addition, under setting [1], the AC50 is 29.1 µM [falling, single point].
On to `O=C(CNC(=O)c1sc2ccccc2c1Cl)Nc1ccccc1F`, for which the cell number change was determined as 132%. Further, under setting [2], the AC50 was 9.2 µM [rising, partial curve].
As to `CCOc1ccc(NC(=O)CN(C)C(=O)CCNC(=O)c2ccccc2Cl)cc1OCC`, the cell number change was found to be 10.4%.
Regarding `CSc1nc2nc(-c3ccccc3)cc(=O)n2[nH]1`, the cell number change was -3.2%. Also, the AC50 under setting [2] is 6.51 µM [falling, partial curve, poor fit].
For `COc1ccc(CNC(=O)c2cccc(N3CCCC3=O)c2)cc1`, the AC50 under setting [1] is 29.1 µM [rising, single point].
For `COc1cccc(S(=O)(=O)c2nc(C)c3c(n2)CCC3)c1`, the cell number change is -27.6%. Also, the AC50 under setting [1] is 29.1 µM [falling, single point].
For the molecule `COC(=O)c1ccc(CNC(=O)N2CCN(S(=O)(=O)c3ccc(C)cc3)CC2)cc1`, the cell number change came out at 17.9%. Besides, the AC50 under setting [2] was 0.0651 µM [rising, full curve, poor fit]. Besides, the AC50 under setting [1] was 0.146 µM [rising, partial curve, poor fit].
On to `CCOC(=O)N1CCC(n2c(SCC(=O)NCc3ccco3)nc3ccsc3c2=O)CC1`, for which the cell number change was found to be 196%. Besides, the AC50 under setting [2] was 1.84 µM [rising, partial curve]. Under setting [1], the AC50 was 1.16 µM [rising, full curve].
Take `CC(C)Cc1nc(N2CCC(C(N)=O)CC2)c2nnn(Cc3ccccc3)c2n1`: under setting [1], the AC50 was 0.103 µM [rising, single point].
For the molecule `Cc1sc2ncnc(N3CCC(C(=O)Nc4cc(S(C)(=O)=O)ccc4Cl)CC3)c2c1C`, the cell number change was 69.9%. Under setting [2], the AC50 was 14.6 µM [rising, partial curve].
On to `Cc1ccc(C(C)n2cc(C(=O)NCCN3CCN(C)CC3)nn2)cc1` (configuration not stated), for which the cell number change is -86.6%. Further, the AC50 under setting [2] was 18.4 µM [falling, single point]. Under setting [1], the AC50 was 18.4 µM [falling, single point].
Take `CCOc1cc(C(=O)Nc2cc(C)ccc2OC)ccc1OCC(=O)N1CCCCC1`: the cell number change amounted to 16.9%. Under setting [1], the AC50 is 0.517 µM [rising, full curve].
Regarding `O=C(Nc1cccnc1)c1cc([N+](=O)[O-])ccc1Cl`, the cell number change amounted to 11.3%. Besides, the AC50 under setting [1] is 0.651 µM [falling, single point].
As to `CC(Sc1nnc(-c2ccco2)n1C)C(=O)Nc1ccc(N2CCOCC2)cc1` (configuration not stated), the cell number change was -8.08%. For the same molecule, under setting [2], the AC50 is 0.092 µM [falling, full curve, poor fit].
For the molecule `Cc1ccc(Nc2nnc(SCC(=O)NCCN3C(=O)CSC3=O)s2)cc1`, the cell number change was -18.3%. Moreover, under setting [1], the half-maximal activity concentration (AC50) was 10.3 µM [falling, single point].
In the case of `COc1cc(C(=O)OCCC(C)C)cc(OC)c1O`, the cell number change was -13.4%. The AC50 under setting [1] is 6.51 µM [rising, single point].
For the molecule `CCOC(=O)N1CCN(C(=S)Nc2ccccc2C(C)C)CC1`, the cell number change is -10.5%. The AC50 under setting [1] was 0.82 µM [falling, single point].
`COc1ccc(C(=O)OCC(=O)Nc2ccc(OC)c(S(=O)(=O)N3CCCCC3)c2)cc1[N+](=O)[O-]`: the cell number change worked out at 23.3%.
Still for that read-out and setting: as for `COc1ccc(NC(=O)/C(=C/c2ccc3c(c2)OCO3)NC(C)=O)cc1`, the figure is 4.19%.
In the case of `COc1ccc(CNC(=O)CSCc2cccc(Cl)c2)cc1`, the cell number change worked out at 5.81%. Besides, under setting [1], the AC50 is 1.16 µM [rising, full curve].
As for `CCOC(=O)Cn1c(=NC(=O)c2sc3ccccc3c2Cl)sc2cc(S(N)(=O)=O)ccc21`, the cell number change stood at 18.5%. Further, the AC50 under setting [2] is 0.461 µM [rising, partial curve, poor fit]. The AC50 under setting [1] is 29.1 µM [falling, single point].
On to `O=C(Nc1cccnc1Cl)c1ccc(S(=O)(=O)N2CCCCCC2)cc1`, for which the cell number change came out at 12.4%. Besides, the AC50 under setting [2] is 0.517 µM [falling, single point]. Also, under setting [1], the AC50 is 0.82 µM [falling, partial curve, poor fit].
Regarding `Cc1ccc(CNC(=O)C2CCCN(S(=O)(=O)c3ccc(F)cc3)C2)cc1` (configuration not stated), the cell number change came out at 22.5%. For the same molecule, the AC50 under setting [1] is 29.1 µM [rising, single point].
`Cc1ccc(-n2nc3c(=O)n(CCCC(=O)NCCc4ccccc4C)nc(C)c3c2C)cc1`: the cell number change was determined as 11.8%.
As to `CC(C)C(=O)N1CCN(c2ccc(NC(=O)c3ccc4c(c3)OCCO4)cc2)CC1`, the cell number change was 8.34%. Under setting [1], the AC50 was 0.146 µM [falling, full curve, poor fit].
Turning to `COc1cc(NC(=O)CN2CCC(C(N)=O)(N3CCCCC3)CC2)c(OC)cc1Cl`, the cell number change is -22.2%. The AC50 under setting [2] is 0.103 µM [falling, full curve, poor fit]. Moreover, under setting [1], the AC50 was 3.66 µM [falling, partial curve, poor fit].
Regarding `Nc1ncnc(Nc2ccccc2C(F)(F)F)n1`, the cell number change was found to be 2.66%. Further, the AC50 under setting [1] is 0.82 µM [falling, partial curve, poor fit].
Turning to `Cc1occc(=O)c1OC(=O)Nc1ccc(Cl)c(Cl)c1`, the cell number change was -50.3%. Also, the AC50 under setting [2] is 20.6 µM [falling, partial curve]. The AC50 under setting [1] was 20.6 µM [falling, partial curve].
As to `CCOC(=O)N1CCN(C(=S)NC(=O)c2ccc(F)c(F)c2)CC1`, the cell number change stood at 2.47%. The AC50 under setting [1] is 1.3 µM [falling, full curve].
Regarding `CCc1cccc(CC)c1-n1c(SCC(=O)c2c(N)n(C)c(=O)n(C)c2=O)nnc1-c1cccnc1`, the cell number change was 22.3%. Further, the AC50 under setting [2] is 0.731 µM [falling, single point].
With `CN(Cc1ccccc1)C(=O)c1nc[nH]c1C(=O)N1CCN(C(=O)OC(C)(C)C)CC1`, the cell number change was found to be 15.5%. Moreover, the AC50 under setting [1] was 0.82 µM [rising, full curve, poor fit].
In the case of `O=C(NCCCN1CCOCC1)c1cc2nc(-c3ccco3)cc(C(F)(F)F)n2n1`, the cell number change stood at 13.3%.
Take `Cc1ccc(N(C(=O)Cn2nnc(-c3cccs3)n2)C(C(=O)NC2CCCC2)c2ccncc2)cc1` (configuration not stated): the cell number change amounted to 12.1%. Further, under setting [1], the AC50 was 29.1 µM [rising, single point].
Take `O=C(Nc1ccccc1F)c1cc(S(=O)(=O)N2CCOCC2)ccc1N1CCOCC1`: the cell number change was 31%. The AC50 under setting [2] is 16.4 µM [rising, single point].
On to `CCCNC(=O)C1CNc2ccccc2O1` (configuration not stated), for which the cell number change came out at 10.3%. Also, under setting [1], the AC50 was 6.51 µM [falling, single point].
On to `Cc1ccc(C2=NCCNC2=O)c(C)c1`, for which the cell number change was -32.8%. The half-maximal activity concentration (AC50) under setting [2] is 0.00517 µM [falling, full curve, poor fit]. Also, the AC50 under setting [1] was 0.0146 µM [falling, full curve, poor fit].
Take `O=C(Nc1cccc(C(=O)Nc2ccccc2F)c1)c1ccccc1`: the cell number change was determined as 8.07%. Further, the AC50 under setting [1] was 0.58 µM [rising, single point].
Turning to `CCCCOc1ccc(/C=C/C(=O)NCCc2nc3ccccc3[nH]2)cc1`, under setting [1], the AC50 was 20.6 µM [falling, partial curve].
Regarding `CC(Cc1ccccc1)N/C=C1\CC(=O)NC1=O` (configuration not stated), the cell number change is -6.98%. Also, the AC50 under setting [2] was 6.51 µM [rising, single point]. Further, the AC50 under setting [1] is 5.17 µM [rising, single point].
Take `CCCN(C(=O)c1cccs1)c1nnc(-c2ccncc2)s1`: the cell number change is 1.22%.
For `CC(=O)Nc1ccc(S(=O)(=O)N2CCSC2c2ccco2)cc1` (configuration not stated), the cell number change was -19.3%. In addition, the AC50 under setting [1] was 20.6 µM [falling, partial curve].
As for `COc1ccc(NC(C)=O)cc1NC(=O)c1cccc(S(=O)(=O)N2CCN(Cc3ccccc3)CC2)c1`, the cell number change is 1.7%. For the same molecule, the AC50 under setting [2] was 1.64 µM [falling, partial curve].
With `O=S(=O)(Cc1noc(-c2ccc(Cl)cc2)n1)Cc1ccco1`, the cell number change was 9.78%. Under setting [2], the AC50 is 0.184 µM [falling, full curve]. The AC50 under setting [1] is 0.326 µM [falling, full curve].
For the molecule `CC(C)CNC(=O)COC(=O)Cc1ccc(Cl)cc1`, the cell number change is -2.73%.
For `CC(C)c1nc2cc(Cl)ccc2n(Cc2ccccc2)c1=O`, the cell number change came out at 22.2%.
Still for that read-out and setting: with `CCOc1ccccc1Nc1nc2ccccc2n2cnnc12` the figure was 20.4%.
For `Cc1ccc(C(=O)N/C(=C\c2cccs2)C(=O)N2CCOCC2)cc1C`, the cell number change was 30.8%. For the same molecule, the AC50 under setting [2] was 29.1 µM [rising, single point].
Regarding `COc1ccc(/C=C2\N=C(C)OC2=O)cc1OC`, the cell number change was -28.8%.
As for `CC(C)(C)CN1CCNC[C@H]1Cc1cccc2ccccc12`, the cell number change was -88.1%. In addition, the AC50 under setting [2] is 16.4 µM [falling, partial curve]. Moreover, under setting [1], the AC50 was 0.00517 µM [falling, full curve, poor fit].
Turning to `COc1cc(/C=C2\SC(=O)N(CC(=O)Nc3ccccc3F)C2=O)cc(Cl)c1O`, the cell number change was -71.9%. For the same molecule, the AC50 under setting [2] was 29.1 µM [falling, single point]. In addition, under setting [1], the concentration at half-maximal activity (AC50) was 29.1 µM [falling, single point].
Take `Cc1cccc(C)c1NC(=S)N1CC(C)OC(C)C1` (configuration not stated): the cell number change is -14%. Under setting [1], the AC50 is 5.8 µM [falling, full curve, poor fit].
With `CCOC(=O)C(=O)C1=C(N2CCOCC2)/C(=C\c2ccc(F)cc2)CC1`, the cell number change was -15.9%. The AC50 under setting [1] is 16.4 µM [rising, partial curve].
As to `CCCCOC(=O)C1=C(C)NC(=O)NC1c1cc2c(cc1Br)OCO2` (configuration not stated), the cell number change was -24.2%. For the same molecule, the AC50 under setting [1] was 1.64 µM [rising, partial curve].
On to `COc1ccc(OC)c2c(N)c(C#N)c(C(F)(F)C(F)(F)F)nc12`, for which the AC50 by setting is: under setting [2], 6.51 µM [rising, single point]; under setting [1], 4.11 µM [rising, partial curve].
With `CC(=O)Nc1cccc(C(=O)N(CCc2ccccc2)Cc2ccccc2)c1`, the cell number change stood at 15.7%.
Still for that read-out and setting: with `COc1cc(OC)cc(C(=O)Nc2ccc(-c3nc4ccccc4o3)c(O)c2)c1` the figure was -28.5%.
For `COC(=O)c1ccc(NC(=O)c2ccc(NC(=O)c3ccco3)cc2)cc1`, the cell number change was -17.8%. Moreover, the AC50 under setting [1] is 20.6 µM [falling, single point].
`Cc1ccccc1N1CCN(C2CCCN(C(=O)c3ocnc3C)C2)CC1` (configuration not stated): the cell number change is -0.867%.
For `O=C1CC(N2CCN(c3ccccn3)CC2)C(=O)N1c1ccc(Cl)cc1` (configuration not stated), the cell number change was -3.64%. In addition, the AC50 under setting [1] was 0.58 µM [rising, partial curve, poor fit].

The record behind these values is PubChem BioAssay AID2685 (National Center for Advancing Translational Sciences (NCATS), 2010).
